PubChem BioAssay AID1508588, Peter MacCallum Cancer Centre, 2020
Aim: 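Which gene losses make BRAF-mutant melanoma cells more responsive to vemurafenib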 (primary screen). System: human WM266.4 melanoma cells (BRAF V600 mutant). Reagents: siRNA pool against human genes, 40 nM. Duration: 96 h from transfection to read-out. Challenge: vemurafenib 300 nM (about IC25), added 48 h after transfection, for 48 h; comparison arm got DMSO vehicle only. Read-out: 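Ratios to non-targeting siRNA for cell gain, counted as DAPI nuclei after minus before drug and averaged over two replicates, and for absorbance-read medium lactate per cell; both binned into fold-change classes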. Direction: cell gain with vemurafenib: higher = more cell gain than with non-targeting siRNA; lactate per cell with vemurafenib: higher = more lactate made per cell. Rule for the call: 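Enhancement is called by pairing each knock-down's vehicle-arm and drug-arm fold-change classes for viability or glycolysis; which class combinations qualify is not given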. Meaning of the calls: active = enhances vemurafenib effect; inactive = no enhancement seen.
In all, the deposit lists about 18,000 reagents; below is a random part of them. 790 of them (4.4%) count as active. 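Calls rest on a combination of fold-change classes in drug and vehicle arms, not all shown here.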 A number with no mark means an inactive call.

Target gene	cell gain with vemurafenib	lactate per cell with vemurafenib
FBN3 (GeneID 84467)	0.46	0.57
GYPC (GeneID 2995)	0.34	0.34
KAT2B (GeneID 8850)	0.59	1
TBCB (GeneID 1155)	0.62 (active)	0.4
ADAM32 (GeneID 203102)	0.91	0.98
IGFBP2 (GeneID 3485)	0.58 (active)	0.49
KLHDC1 (GeneID 122773)	0.63 (active)	0.43
FGL1 (GeneID 2267)	1.08	0.74
RSPH4A (GeneID 345895)	0.37	0.96
ICAM5 (GeneID 7087)	0.03	1.18
RFTN2 (GeneID 130132)	1.07	0.84
ADAMTS7 (GeneID 11173)	0.49	1.13
BORCS8-MEF2B (GeneID 4207)	0.98	1.55
KIAA1217 (GeneID 56243)	0.82	0.81

Copied from the entries so far, 4 entries:
Target gene	cell gain with vemurafenib	lactate per cell with vemurafenib
KLHDC1 (GeneID 122773)	0.63 (active)	0.43
FGL1 (GeneID 2267)	1.08	0.74
RSPH4A (GeneID 345895)	0.37	0.96
ICAM5 (GeneID 7087)	0.03	1.18

Next records:
Target gene	cell gain with vemurafenib	lactate per cell with vemurafenib
NRXN1 (GeneID 9378)	0.75	0.74
ARHGEF19 (GeneID 128272)	0.65	0.72
SLCO4C1 (GeneID 353189)	0.3	0.66
GNG11 (GeneID 2791)	0.87	0.78
OPRPN (GeneID 58503)	0.58	1.56
PSMG2 (GeneID 56984)	0.64	0.59
DIPK1C (GeneID 125704)	0.38	0.22
SNCA (GeneID 6622)	0.51	0.72
STARD13 (GeneID 90627)	0.99	0.77
ZNF256 (GeneID 10172)	0.45	0.98
CRK (GeneID 1398)	0.3	2.47
CACNA1F (GeneID 778)	0.74	0.88
TAF2 (GeneID 6873)	0.15	1.46
C2orf42 (GeneID 54980)	0.77	1.26
ZBTB9 (GeneID 221504)	0.83 (active)	0.42
ROBO1 (GeneID 6091)	0.3	1.16
HERPUD1 (GeneID 9709)	0.39	1.15
CCNB3 (GeneID 85417)	0.69	0.64
ORC1 (GeneID 4998)	0.4	0.98
POFUT3 (GeneID 84750)	0.11	0.29
